# The supplement of paper PMC11732987, “Enantioselective OTUD7B fragment discovery through chemoproteomics screening and high-throughput optimisation” (Communications Chemistry, 2025)
# Amino acid sequences for entries named in this document (tags omitted). A change or cut given only in a name is not applied to a line headed by its entry. Residues count along the entry.
# UniProt O43815, 650-669: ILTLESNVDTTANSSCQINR
# UniProt Q8N5C6: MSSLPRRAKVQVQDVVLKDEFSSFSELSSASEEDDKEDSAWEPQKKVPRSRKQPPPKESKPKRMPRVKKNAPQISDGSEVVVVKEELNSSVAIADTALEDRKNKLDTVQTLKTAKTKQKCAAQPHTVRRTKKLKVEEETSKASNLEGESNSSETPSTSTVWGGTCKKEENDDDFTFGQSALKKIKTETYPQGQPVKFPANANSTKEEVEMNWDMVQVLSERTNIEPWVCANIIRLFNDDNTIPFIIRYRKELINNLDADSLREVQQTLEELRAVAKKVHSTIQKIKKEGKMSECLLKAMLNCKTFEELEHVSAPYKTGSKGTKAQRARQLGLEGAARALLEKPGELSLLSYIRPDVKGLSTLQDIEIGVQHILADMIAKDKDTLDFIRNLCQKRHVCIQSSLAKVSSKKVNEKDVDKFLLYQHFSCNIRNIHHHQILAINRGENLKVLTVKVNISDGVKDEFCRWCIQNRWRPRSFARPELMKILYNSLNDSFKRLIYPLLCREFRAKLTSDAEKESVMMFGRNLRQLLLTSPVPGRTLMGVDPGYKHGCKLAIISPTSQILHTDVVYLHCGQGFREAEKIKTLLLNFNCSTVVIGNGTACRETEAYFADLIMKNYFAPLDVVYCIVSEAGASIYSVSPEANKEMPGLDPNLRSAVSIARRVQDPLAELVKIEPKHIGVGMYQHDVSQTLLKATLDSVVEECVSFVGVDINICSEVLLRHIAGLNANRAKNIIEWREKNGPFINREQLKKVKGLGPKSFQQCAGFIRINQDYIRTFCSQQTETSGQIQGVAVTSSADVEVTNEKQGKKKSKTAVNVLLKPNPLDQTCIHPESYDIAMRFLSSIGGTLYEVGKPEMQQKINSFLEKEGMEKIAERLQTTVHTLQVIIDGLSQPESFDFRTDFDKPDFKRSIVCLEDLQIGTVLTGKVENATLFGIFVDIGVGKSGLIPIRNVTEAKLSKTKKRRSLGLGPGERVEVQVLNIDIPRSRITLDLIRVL
# UniProt Q5M775: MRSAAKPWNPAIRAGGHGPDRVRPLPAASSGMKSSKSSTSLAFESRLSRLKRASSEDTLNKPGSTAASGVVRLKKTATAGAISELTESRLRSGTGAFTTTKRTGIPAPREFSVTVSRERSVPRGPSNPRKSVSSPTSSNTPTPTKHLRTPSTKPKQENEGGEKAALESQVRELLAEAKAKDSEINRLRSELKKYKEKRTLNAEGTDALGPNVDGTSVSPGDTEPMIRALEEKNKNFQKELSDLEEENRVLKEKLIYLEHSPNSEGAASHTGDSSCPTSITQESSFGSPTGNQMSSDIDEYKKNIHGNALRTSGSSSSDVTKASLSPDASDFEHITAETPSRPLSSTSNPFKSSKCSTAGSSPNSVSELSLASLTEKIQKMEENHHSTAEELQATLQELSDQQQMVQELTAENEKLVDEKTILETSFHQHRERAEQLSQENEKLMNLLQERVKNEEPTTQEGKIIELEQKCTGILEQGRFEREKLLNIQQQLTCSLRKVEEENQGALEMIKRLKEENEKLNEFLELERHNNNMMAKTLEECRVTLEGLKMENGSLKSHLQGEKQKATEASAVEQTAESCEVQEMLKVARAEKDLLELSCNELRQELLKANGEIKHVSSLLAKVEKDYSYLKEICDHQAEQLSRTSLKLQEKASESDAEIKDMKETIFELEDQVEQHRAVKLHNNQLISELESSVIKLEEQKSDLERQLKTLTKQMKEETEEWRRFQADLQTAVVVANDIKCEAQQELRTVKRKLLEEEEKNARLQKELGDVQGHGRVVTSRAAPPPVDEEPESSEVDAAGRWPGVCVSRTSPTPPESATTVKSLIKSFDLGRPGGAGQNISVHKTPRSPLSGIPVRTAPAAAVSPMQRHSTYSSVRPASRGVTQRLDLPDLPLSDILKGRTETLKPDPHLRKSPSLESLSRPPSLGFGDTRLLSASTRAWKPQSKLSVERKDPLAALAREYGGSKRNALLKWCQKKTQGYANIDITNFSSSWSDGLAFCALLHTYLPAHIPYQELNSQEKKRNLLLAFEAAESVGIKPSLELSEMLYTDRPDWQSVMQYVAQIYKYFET
# UniProt Q9P289: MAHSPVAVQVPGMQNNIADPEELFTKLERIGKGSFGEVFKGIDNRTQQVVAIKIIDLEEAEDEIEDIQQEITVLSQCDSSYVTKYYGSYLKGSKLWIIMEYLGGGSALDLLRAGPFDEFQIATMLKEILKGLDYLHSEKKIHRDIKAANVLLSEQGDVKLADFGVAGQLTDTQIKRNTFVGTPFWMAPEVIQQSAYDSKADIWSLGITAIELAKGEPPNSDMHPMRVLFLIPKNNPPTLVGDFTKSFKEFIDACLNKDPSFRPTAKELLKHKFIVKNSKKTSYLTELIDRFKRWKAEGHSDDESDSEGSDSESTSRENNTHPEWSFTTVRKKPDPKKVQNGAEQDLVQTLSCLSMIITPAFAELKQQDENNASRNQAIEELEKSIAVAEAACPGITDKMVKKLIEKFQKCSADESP
# UniProt Q15005, 11-32: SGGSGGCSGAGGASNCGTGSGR
# UniProt Q8N2I9: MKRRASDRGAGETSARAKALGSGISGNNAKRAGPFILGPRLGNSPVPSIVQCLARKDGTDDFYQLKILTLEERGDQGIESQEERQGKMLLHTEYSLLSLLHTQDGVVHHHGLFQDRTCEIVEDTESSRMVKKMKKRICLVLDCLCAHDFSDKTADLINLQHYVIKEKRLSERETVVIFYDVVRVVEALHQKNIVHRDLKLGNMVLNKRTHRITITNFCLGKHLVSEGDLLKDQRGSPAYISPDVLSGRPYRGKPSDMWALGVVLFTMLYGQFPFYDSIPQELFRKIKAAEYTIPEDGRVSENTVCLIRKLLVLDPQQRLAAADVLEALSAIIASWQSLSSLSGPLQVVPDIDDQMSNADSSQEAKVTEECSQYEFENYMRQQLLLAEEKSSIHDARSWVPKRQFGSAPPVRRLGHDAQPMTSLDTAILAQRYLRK
# UniProt Q8N1F8: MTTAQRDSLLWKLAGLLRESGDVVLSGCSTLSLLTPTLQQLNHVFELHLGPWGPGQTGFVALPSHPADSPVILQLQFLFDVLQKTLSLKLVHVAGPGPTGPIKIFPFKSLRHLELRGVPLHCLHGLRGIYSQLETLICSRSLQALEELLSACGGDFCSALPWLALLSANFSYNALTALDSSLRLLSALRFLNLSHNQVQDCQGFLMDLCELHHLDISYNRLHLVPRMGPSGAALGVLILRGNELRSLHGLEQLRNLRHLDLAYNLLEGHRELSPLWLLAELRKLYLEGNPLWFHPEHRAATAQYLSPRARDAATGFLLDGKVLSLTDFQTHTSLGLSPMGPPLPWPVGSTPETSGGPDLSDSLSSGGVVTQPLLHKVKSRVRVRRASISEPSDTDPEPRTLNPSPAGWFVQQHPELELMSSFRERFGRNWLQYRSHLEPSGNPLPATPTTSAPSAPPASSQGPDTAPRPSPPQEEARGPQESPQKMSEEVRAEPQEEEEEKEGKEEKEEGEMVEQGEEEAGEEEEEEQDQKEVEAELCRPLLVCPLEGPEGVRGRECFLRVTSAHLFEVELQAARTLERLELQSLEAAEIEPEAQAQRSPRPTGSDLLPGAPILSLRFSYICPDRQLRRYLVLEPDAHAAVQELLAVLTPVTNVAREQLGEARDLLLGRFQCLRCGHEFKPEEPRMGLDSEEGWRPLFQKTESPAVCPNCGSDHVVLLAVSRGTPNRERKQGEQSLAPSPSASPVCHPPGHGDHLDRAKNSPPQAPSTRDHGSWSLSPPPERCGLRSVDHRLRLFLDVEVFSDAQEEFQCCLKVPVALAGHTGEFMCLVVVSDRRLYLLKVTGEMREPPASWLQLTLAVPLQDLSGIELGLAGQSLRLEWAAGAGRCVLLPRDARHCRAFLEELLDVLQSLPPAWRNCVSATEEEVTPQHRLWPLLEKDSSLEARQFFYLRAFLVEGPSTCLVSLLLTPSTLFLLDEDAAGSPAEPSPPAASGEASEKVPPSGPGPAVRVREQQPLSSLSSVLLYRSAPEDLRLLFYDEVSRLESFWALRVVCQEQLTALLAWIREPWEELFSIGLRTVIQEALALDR
# UniProt P42224: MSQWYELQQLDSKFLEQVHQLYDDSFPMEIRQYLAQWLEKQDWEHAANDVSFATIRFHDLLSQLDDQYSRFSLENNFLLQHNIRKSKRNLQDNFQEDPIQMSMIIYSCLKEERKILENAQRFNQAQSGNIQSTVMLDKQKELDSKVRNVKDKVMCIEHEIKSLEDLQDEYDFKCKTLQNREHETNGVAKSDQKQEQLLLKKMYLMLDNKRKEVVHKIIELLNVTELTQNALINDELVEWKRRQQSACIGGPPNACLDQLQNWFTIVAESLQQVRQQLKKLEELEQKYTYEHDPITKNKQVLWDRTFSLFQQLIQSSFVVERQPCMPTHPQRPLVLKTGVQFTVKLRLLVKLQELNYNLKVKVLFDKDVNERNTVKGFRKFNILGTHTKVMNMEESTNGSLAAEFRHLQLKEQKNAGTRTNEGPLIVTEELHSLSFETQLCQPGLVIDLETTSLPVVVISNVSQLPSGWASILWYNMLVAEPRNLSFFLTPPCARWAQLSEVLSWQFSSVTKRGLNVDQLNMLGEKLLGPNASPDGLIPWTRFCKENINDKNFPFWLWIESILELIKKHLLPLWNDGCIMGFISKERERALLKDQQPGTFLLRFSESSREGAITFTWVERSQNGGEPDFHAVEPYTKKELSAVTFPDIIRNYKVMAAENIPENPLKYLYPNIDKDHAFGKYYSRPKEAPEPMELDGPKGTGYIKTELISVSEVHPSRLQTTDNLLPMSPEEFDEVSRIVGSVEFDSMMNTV
# UniProt P08240, 353-373: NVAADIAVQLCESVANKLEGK
# UniProt Q68D10: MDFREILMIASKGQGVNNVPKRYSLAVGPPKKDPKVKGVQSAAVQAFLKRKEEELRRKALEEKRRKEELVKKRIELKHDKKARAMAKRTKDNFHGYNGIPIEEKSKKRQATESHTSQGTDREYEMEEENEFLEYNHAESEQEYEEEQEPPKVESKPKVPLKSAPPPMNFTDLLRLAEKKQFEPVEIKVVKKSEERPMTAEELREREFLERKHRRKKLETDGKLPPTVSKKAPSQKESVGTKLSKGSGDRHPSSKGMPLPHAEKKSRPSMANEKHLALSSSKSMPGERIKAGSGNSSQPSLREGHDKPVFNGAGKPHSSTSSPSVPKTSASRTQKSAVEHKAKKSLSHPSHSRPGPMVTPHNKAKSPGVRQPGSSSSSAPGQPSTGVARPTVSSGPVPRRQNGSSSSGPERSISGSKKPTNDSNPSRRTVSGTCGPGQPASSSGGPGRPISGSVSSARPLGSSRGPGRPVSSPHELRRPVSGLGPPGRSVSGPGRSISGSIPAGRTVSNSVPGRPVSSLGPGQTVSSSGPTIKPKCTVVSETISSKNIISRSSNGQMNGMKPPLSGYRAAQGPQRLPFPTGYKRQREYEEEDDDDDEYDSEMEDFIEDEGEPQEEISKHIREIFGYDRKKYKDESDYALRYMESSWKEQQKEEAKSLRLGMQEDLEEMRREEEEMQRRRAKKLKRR
# UniProt Q15022: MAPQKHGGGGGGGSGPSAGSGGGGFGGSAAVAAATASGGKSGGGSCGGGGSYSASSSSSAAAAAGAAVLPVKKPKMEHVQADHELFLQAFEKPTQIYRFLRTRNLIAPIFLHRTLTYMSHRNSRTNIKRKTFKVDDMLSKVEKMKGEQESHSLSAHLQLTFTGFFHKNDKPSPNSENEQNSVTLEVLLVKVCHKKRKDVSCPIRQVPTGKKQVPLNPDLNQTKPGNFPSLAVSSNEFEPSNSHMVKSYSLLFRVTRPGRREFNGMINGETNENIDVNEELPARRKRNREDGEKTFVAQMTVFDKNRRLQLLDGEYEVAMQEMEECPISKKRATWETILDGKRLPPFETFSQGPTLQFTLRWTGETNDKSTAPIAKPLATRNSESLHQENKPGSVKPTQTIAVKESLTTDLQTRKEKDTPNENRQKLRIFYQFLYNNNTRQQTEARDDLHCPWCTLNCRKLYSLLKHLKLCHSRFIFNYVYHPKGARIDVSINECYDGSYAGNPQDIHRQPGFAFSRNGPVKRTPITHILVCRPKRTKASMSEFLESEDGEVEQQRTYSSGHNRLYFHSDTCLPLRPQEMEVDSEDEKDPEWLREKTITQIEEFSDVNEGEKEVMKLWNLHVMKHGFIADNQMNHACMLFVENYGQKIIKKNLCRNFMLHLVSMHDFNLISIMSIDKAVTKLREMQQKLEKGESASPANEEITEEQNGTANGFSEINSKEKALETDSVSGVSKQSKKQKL
# Some of the results follow. The data scatter; read single values as rough.
# Compound: ClCC(=O)N[C@@H]1CCCc2ccccc12
# Assay: log2 mean competition ratio of IA-DTB cysteine labelling (DMSO/compound) (log2 ratio); higher = stronger cysteine engagement by compound
# Conditions: 50 µM; treatment time: 4 h; cell line lysate: HEK293T
# Procedure: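 IA-DTB competitive cysteine chemoproteomics in HEK293T RIPA lysate. Lysates were treated with compound 29 or 30 at 50 or 200 µM for 4 h, then IA-DTB (500 µM, 1 h), trypsin-digested, NeutrAvidin-enriched and analysed by diaPASEF. Competition ratio = intensity DMSO / intensity compound (n=4 treated, n=64 DMSO); binding: mean log2 CR ≥ 1 and p ≤ 0.05 plus QC filters. Target is the cysteine site.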
row,Target,log2 mean competition ratio
1,SRCAP C2042 (UniProt Q6ZRS2),0.309
2,STRN C665 (UniProt O43815),-0.646
3,SYNE2 C1032 (UniProt Q8WXH0),0.0978
4,SRBD1 C120 (UniProt Q8N5C6),0.584
5,SRRT C490 (UniProt Q9BXP5),0.0215
6,SQSTM1 C113 (UniProt Q13501),-0.00255
7,SPECC1 C740 (UniProt Q5M775),-0.0918
8,STK26 C392 (UniProt Q9P289),-0.244
9,"SPCS2_(C17,C17,C26,C26) (UniProt Q15005)",-0.244
10,SYNE2 C90 (UniProt Q8WXH0),-0.176
11,STK40 C305 (UniProt Q8N2I9),-0.455
12,STK31 C563,0.0728
13,STK11IP C918 (UniProt Q8N1F8),0.181
14,STAT1 C155 (UniProt P42224),-0.0749
15,SYNE2 C5212 (UniProt Q8WXH0),-0.095
16,SRPRA C363 (UniProt P08240),-0.393
17,SPTY2D1 C535 (UniProt Q68D10),0.0334
18,SRBD1 C502 (UniProt Q8N5C6),0.17
19,SUZ12 C201 (UniProt Q15022),-0.0565
20,STIP1 C461,-0.259

# Same assay, conditions: 200 µM; treatment time: 4 h; cell line lysate: HEK293T
row,Target,log2 mean competition ratio
1,SRCAP C2042 (UniProt Q6ZRS2),0.0263
2,STRN C665 (UniProt O43815),0.0064
3,SYNE2 C1032 (UniProt Q8WXH0),-0.115
4,SRBD1 C120 (UniProt Q8N5C6),-0.247
5,SRRT C490 (UniProt Q9BXP5),0.138
6,SQSTM1 C113 (UniProt Q13501),0.12
7,SPECC1 C740 (UniProt Q5M775),-0.27
8,STK26 C392 (UniProt Q9P289),-0.158
9,"SPCS2_(C17,C17,C26,C26) (UniProt Q15005)",0.447
10,SYNE2 C90 (UniProt Q8WXH0),0.298
11,STK40 C305 (UniProt Q8N2I9),0.193
12,STK31 C563,0.00483
13,STK11IP C918 (UniProt Q8N1F8),0.0178
14,STAT1 C155 (UniProt P42224),0.136
15,SYNE2 C5212 (UniProt Q8WXH0),-0.295
16,SRPRA C363 (UniProt P08240),0.0378
17,SPTY2D1 C535 (UniProt Q68D10),-0.0631
18,SRBD1 C502 (UniProt Q8N5C6),0.225
19,SUZ12 C201 (UniProt Q15022),0.0257
20,STIP1 C461,-0.112
